{"sequences": {"note": "Amino acid sequences for entries named in this document (tags omitted). Residues count along the entry.", "UniProt P54756, residues 25-1037": "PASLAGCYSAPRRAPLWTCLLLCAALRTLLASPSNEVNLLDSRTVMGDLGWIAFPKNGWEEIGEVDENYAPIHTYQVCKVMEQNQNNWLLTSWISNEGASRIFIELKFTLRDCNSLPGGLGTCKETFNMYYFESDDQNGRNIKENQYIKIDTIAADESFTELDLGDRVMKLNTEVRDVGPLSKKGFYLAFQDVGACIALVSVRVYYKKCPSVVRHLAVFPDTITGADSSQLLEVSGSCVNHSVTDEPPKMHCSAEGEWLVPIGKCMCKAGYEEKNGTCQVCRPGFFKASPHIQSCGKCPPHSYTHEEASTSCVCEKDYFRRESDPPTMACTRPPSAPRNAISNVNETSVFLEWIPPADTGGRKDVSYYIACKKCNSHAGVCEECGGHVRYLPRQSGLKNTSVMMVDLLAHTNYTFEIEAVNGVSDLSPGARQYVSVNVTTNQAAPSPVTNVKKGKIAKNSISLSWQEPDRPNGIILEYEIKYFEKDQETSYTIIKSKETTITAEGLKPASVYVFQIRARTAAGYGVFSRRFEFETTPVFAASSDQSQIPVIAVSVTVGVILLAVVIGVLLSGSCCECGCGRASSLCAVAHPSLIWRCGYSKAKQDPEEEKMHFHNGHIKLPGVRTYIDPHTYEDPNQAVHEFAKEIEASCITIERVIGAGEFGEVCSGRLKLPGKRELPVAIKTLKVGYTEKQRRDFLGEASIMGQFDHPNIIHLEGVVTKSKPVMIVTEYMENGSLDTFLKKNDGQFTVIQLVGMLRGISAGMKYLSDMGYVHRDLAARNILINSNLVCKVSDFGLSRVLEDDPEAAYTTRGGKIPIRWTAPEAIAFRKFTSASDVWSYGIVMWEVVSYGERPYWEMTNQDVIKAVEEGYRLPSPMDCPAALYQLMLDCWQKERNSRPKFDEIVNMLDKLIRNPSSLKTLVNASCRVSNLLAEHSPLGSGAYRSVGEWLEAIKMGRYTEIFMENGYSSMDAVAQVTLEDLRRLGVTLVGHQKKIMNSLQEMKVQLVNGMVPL"}, "source": "paper PMC12176286", "target": "T1, Rho GTPase-activating protein TAGAP (UniProt Q8N103)", "T1 sequence": "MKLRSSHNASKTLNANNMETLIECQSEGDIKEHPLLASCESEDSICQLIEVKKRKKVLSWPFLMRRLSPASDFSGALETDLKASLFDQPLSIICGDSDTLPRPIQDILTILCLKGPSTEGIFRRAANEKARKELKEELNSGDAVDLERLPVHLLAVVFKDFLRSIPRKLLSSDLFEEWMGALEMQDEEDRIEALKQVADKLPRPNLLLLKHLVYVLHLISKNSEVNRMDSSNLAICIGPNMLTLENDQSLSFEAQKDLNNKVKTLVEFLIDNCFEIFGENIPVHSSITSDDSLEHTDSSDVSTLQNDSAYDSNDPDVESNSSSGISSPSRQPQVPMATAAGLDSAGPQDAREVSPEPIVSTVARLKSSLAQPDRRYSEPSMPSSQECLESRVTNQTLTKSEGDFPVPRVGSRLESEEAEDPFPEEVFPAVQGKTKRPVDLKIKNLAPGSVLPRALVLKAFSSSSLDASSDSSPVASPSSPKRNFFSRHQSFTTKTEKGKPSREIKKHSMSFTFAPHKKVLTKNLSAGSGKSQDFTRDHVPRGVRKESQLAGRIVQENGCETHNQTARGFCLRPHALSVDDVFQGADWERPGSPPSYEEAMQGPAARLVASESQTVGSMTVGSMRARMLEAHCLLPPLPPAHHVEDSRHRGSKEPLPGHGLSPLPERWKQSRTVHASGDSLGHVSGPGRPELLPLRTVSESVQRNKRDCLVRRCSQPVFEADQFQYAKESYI", "assay": "affinity purification with mass spectrometry; immunoprecipitation and mass spectrometry; no further details told", "note": "Results are given in words; binding and its absence hold for the method and conditions named. In cells and extracts the contact can be indirect. Here binding means that the protein was enriched with, or labelled near, the bait; the list need not be complete. Tags and fused reporters may be left off the sequences shown.", "data": [{"substance": "EPHA5 (found with TAGAP by immunoprecipitation and mass spectrometry) (from UniProt P54756 25-1037) (receptor)", "values": [{"measurement": "binding", "value": "binds"}]}]}
